# Reference: PubChem BioAssay AID2685 (National Center for Advancing Translational Sciences (NCATS), 2010)
# The list shows a part of the results. Further columns of the screen follow, without active or inactive calls. The list favours compounds with an active or inconclusive main result. Words in brackets tell the shape of the fitted curve; partial curves, single points and poor fits give uncertain potencies.
# Test: qHTS Assay for Lipid Storage Modulators in Drosophila S3 Cells;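 as to cell number change: cells counted by Cell Tracker Red CMTPX staining in the red channel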
# Conditions: BODIPY lipid droplet fluorescence, 18-24 h; for cell number change: measured here: cell count max response, cells fed with added oleic acid
# Procedure, shortened: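 Laser-scanning cytometry quantifies lipid droplet accumulation (500–530 nm total intensity; droplet/cell object ratio) in oleic acid-fed (400 uM added) Drosophila S3 cells treated with a concentration series. 20 uM Triacsin C defined 100% inhibition.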
# [1] = measured here: cell number channel AC50, cells fed with added oleic acid
# [2] = measured here: lipid fluorescence (Fed channel) AC50, cells fed with added oleic acid
smiles,measurement,setting,value
COC(=O)Cc1ccc(NC(=O)c2ccc(C(C)(C)C)cc2)cc1,cell number change,,127%
same,AC50,[1],"4.61 µM [rising, partial curve]"
same,AC50,[2],"7.31 µM [rising, partial curve]"
CCOC(=O)c1cnc(-n2nc(C)cc2C)nc1N(C)C,cell number change,,-11.3%
COc1ccc(N=C2C(=Nc3ccc(OC)cc3)N(c3ccc(N(C)C)cc3)C(=S)N2c2ccc(OC)cc2)cc1,cell number change,,-89.2%
same,AC50,[1],"1.64 µM [falling, full curve]"
same,AC50,[2],"23.1 µM [falling, partial curve, poor fit]"
COc1ccc(S(=O)(=O)N2CCN(C)CC2)cc1C,cell number change,,9.39%
same,AC50,[2],"2.91 µM [falling, partial curve, poor fit]"
O=C(O)c1ccc(Cl)c(S(=O)(=O)N(Cc2ccccc2)c2ccccc2)c1,cell number change,,11.9%
COc1ccc(C2=CC(=O)C[C@H](c3ccc(OC)c(OC)c3)C2)cc1,cell number change,,-0.129%
same,AC50,[2],"0.164 µM [rising, full curve, poor fit]"
COc1ccc2[nH]cc(C(=O)CN3CCN(C4CCCCC4)CC3)c2c1,cell number change,,4.72%
same,AC50,[2],"29.1 µM [rising, single point]"
Cc1ccc2c(c1)N(C(=O)CCC(=O)NCc1ccccn1)CC(C)O2 (stereo unspecified),cell number change,,17%
same,AC50,[2],"1.03 µM [rising, partial curve, poor fit]"
O=C(CN1CCN(S(=O)(=O)N2CCOCC2)CC1)Nc1ccc(Cl)c(Cl)c1,cell number change,,-7.83%
Cc1ccc(Oc2ccc(C(=O)NC3CCSC3=O)cn2)cc1 (stereo unspecified),cell number change,,-22.3%
same,AC50,[2],"32.6 µM [falling, single point]"
O=Cc1ccc(-c2cccc(C(=O)O)c2)o1,cell number change,,-60.5%
same,AC50,[1],"20.6 µM [falling, partial curve, poor fit]"
same,AC50,[2],"23.1 µM [falling, single point]"
COc1ccc(N2CCN(CC(=O)NCc3ccc(Cl)cc3)CC2)cc1,cell number change,,10.4%
same,AC50,[2],"23.1 µM [falling, single point]"
CN(Cc1ccccc1)C(=S)Nc1cccnc1,cell number change,,2.83%
same,AC50,[2],"0.326 µM [falling, full curve, poor fit]"
O=C(c1ccco1)N1CCN(CC(=O)N2CCCc3c2c(=O)oc2ccc(O)cc32)CC1,cell number change,,-136%
same,AC50,[1],"20.6 µM [falling, single point]"
same,AC50,[2],"29.1 µM [falling, single point]"
COc1ccc(-c2csc(NC(=O)c3c(OC)cccc3OC)n2)cc1,cell number change,,20.5%
same,AC50,[2],"29.1 µM [rising, single point]"
O=C(COC(=O)CNC(=O)c1ccco1)Nc1ccccc1OC(F)F,cell number change,,21.7%
COc1ccc(-c2cc3c(=O)n(CC(=O)NCc4ccc(F)cc4)ncn3n2)cc1,cell number change,,10.1%
same,AC50,[1],"0.184 µM [rising, full curve, poor fit]"
CCc1nnc(NC(=O)CSc2nnc3c4ccccc4n(C)c3n2)s1,cell number change,,0.91%
same,AC50,[2],"3.66 µM [rising, full curve, poor fit]"
CCOC(=O)c1cccc(NC(=O)C2CCN(S(=O)(=O)c3cccs3)CC2)c1,cell number change,,49.8%
CC(=O)c1ccc(N2CCN(CC(=O)Nc3ccccc3C(=O)NC3CC3)CC2)c(F)c1,cell number change,,14.2%
same,AC50,[2],"0.0651 µM [falling, full curve]"
CCOCCCN(C(=O)c1snc(C(N)=O)c1N)C(C(=O)NC1CCCC1)c1ccc(O)c(OC)c1 (stereo unspecified),cell number change,,-12.4%
same,AC50,[2],"29.1 µM [falling, single point]"
O=C(CSc1nc2cc([N+](=O)[O-])ccc2n1-c1ccccc1)NCc1ccc2c(c1)OCO2,cell number change,,-16.8%
O=C(OCC(=O)N1CCc2ccccc2C1)c1cccnc1Cl,cell number change,,31.6%
same,AC50,[1],"25.9 µM [rising, single point]"
same,AC50,[2],"29.1 µM [rising, single point]"
CN(c1cccc(NC(=O)CSc2ccc(Cl)cc2)c1)S(C)(=O)=O,cell number change,,-16.6%
same,AC50,[2],"6.51 µM [rising, single point]"
Cc1ccc(C)c2sc(N3CCN(C(=O)c4ccc([N+](=O)[O-])o4)CC3)nc12,AC50,[1],"6.51 µM [rising, single point]"
O=C(NCc1ccccc1F)C1CCCN1C(=O)Nc1ccccc1 (stereo unspecified),cell number change,,-4.72%
same,AC50,[2],"0.517 µM [rising, single point]"
CCOC(=O)c1c(NC(C)=O)sc2c(OCC(O)CN(CC)CC)c(Br)ccc12 (stereo unspecified),cell number change,,-8.39%
CCCn1cnc2cc(NC(=O)c3cccs3)ccc21,cell number change,,24.7%
same,AC50,[2],"29.1 µM [rising, single point]"
CNC(=O)COC(=O)c1ccc(-c2nc3ccccc3s2)s1,cell number change,,-21.4%
same,AC50,[2],"29.1 µM [falling, single point]"
NC(=O)C1(c2ccccc2)OC1c1ccccc1 (stereo unspecified),cell number change,,6.07%
same,AC50,[2],"29.1 µM [falling, partial curve, poor fit]"
COc1ccc(NC(=O)COC(=O)c2ccc(S(=O)(=O)N3CCCCCC3)cc2)c(OC)c1,cell number change,,-0.257%
same,AC50,[1],"7.31 µM [rising, single point]"
same,AC50,[2],"5.8 µM [rising, partial curve]"
COCCn1c(C)cc(C2=NNC(=Nc3ccc(F)cc3)SC2)c1C,cell number change,,37.7%
same,AC50,[1],"29.1 µM [rising, single point]"
same,AC50,[2],"23.1 µM [rising, single point]"
CN1C(=O)c2ccccc2N(C)C1c1ccc2c(c1)OCO2 (stereo unspecified),cell number change,,-12.8%
same,AC50,[2],"14.6 µM [rising, single point]"
COc1ccc(Cn2ccnc2)cc1Br,AC50,[1],"0.651 µM [rising, single point]"
O=C(OCCCOC(=O)c1ccc([N+](=O)[O-])o1)c1ccc([N+](=O)[O-])o1,cell number change,,5.68%
same,AC50,[2],"0.58 µM [falling, single point]"
O=C(N/N=C/C=C\c1ccco1)c1cccs1,cell number change,,-32.9%
same,AC50,[1],"29.1 µM [falling, single point]"
same,AC50,[2],"29.1 µM [falling, single point]"
O=C(NC(CC(=O)N1CCN(c2ccccc2O)CC1)c1ccccc1)c1ccccc1Cl (stereo unspecified),cell number change,,-21.7%
same,AC50,[2],"0.00411 µM [rising, full curve, poor fit]"
CC(=O)c1cccc(NC(=O)CSc2nc(=O)n(Cc3ccccn3)c3c2CCC3)c1,AC50,[1],"0.00411 µM [rising, full curve, poor fit]"
COc1ccc2c(c1)c(C(C)=O)c(C)n2C,cell number change,,38.9%
same,AC50,[1],"18.4 µM [rising, partial curve]"
same,AC50,[2],"3.26 µM [rising, full curve]"
CC1=C(C(=O)OCCOC(C)C)C(c2cccnc2)C2=C(CCCC2=O)N1 (stereo unspecified),cell number change,,9.68%
same,AC50,[2],"0.411 µM [rising, full curve]"
COc1ccc(N2CCN(C(=O)Nc3ccccc3C)CC2)cc1,cell number change,,3.97%
same,AC50,[2],"0.1 µM [rising, full curve, poor fit]"
COc1ccc(-n2nc(C(=O)Nc3ccc4c(c3)OCO4)c3ccccc3c2=O)cc1,cell number change,,-9.94%
same,AC50,[2],"0.0259 µM [rising, full curve]"
CCn1c(-c2ccc(-c3ccccc3)cc2)c[nH]c1=S,cell number change,,-26.8%
same,AC50,[1],"0.366 µM [rising, full curve]"
same,AC50,[2],"0.58 µM [rising, full curve]"
C=CCC(CC=C)(C(=O)O)c1ccccc1,cell number change,,-0.86%
CC(C)(C)NC(=O)N1CCN(S(=O)(=O)c2ccc3c(c2)CCC3)CC1,cell number change,,-3.63%
CN1CCN(CCCNc2c(C=O)c(=O)[nH]c3ccccc23)CC1,cell number change,,35.1%
same,AC50,[1],"0.92 µM [rising, full curve, poor fit]"
same,AC50,[2],"29.1 µM [rising, single point]"
CS(=O)(=O)N1CCN(CC2CC3C=CC2C3)CC1 (stereo unspecified),AC50,[2],"1.64 µM [falling, partial curve]"
O=S(=O)(/N=C(/Nc1cccc2ccccc12)c1ccccc1)c1ccc(Br)cc1,cell number change,,-26.1%
same,AC50,[2],"29.1 µM [falling, single point]"
Cc1nc2ccc(S(=O)(=O)NC(CC(C)C)C(=O)O)cc2s1 (stereo unspecified),cell number change,,13.5%
Cc1cccc(C)c1-n1c(C)nn(-c2ncc(C(F)(F)F)cc2Cl)c1=O,cell number change,,-46.3%
CCOC(=S)SCC(=O)Nc1nc(-c2ccc(Br)cc2)cs1,cell number change,,-28.3%
CC(=O)c1cn(CC(=O)Nc2c(C)cccc2C)c2ccccc12,cell number change,,-21.6%
same,AC50,[2],"5.17 µM [falling, partial curve]"
O=C1CNC(=O)/C(=C/c2ccco2)N1,cell number change,,1.04%
CCOC(=O)CC1C(=O)NCCN1C(=O)Nc1ccccc1 (stereo unspecified),cell number change,,-20.7%
same,AC50,[1],"2.31 µM [falling, full curve, poor fit]"
same,AC50,[2],"3.26 µM [falling, full curve]"
O=C(Nc1ccc(N2CCCCC2)cc1)c1ccc([N+](=O)[O-])o1,AC50,[2],"9.2 µM [falling, partial curve]"
CN(C)S(=O)(=O)c1cccc(NC(=O)C(c2ccccc2)c2ccccc2)c1,cell number change,,29.3%
same,AC50,[2],"6.51 µM [rising, single point]"
CCOC(=O)c1c2n(c3c(NCc4ccccc4)ncnc13)CCCC2,cell number change,,-10.5%
same,AC50,[1],"0.00461 µM [rising, full curve, poor fit]"
same,AC50,[2],"29.1 µM [rising, single point]"
Cc1ccc(CN(Cc2cccnc2)C(=O)CN2C(=O)COc3ccccc32)o1,cell number change,,2.51%
same,AC50,[2],"0.517 µM [rising, full curve, poor fit]"
Cc1cc(C)c(S(=O)(=O)N2CCN(C(=O)N3CCOCC3)CC2)c(C)c1,AC50,[2],"9.2 µM [falling, partial curve, poor fit]"
CCCc1ccc2oc(C(=O)N3CCCC3)c(C)c2c1,cell number change,,-14.7%
same,AC50,[2],"4.11 µM [falling, full curve, poor fit]"
Cc1ccc(NC(=O)/C=C\C(=O)O)c([N+](=O)[O-])c1,cell number change,,-3.7%
same,AC50,[2],"0.082 µM [rising, full curve, poor fit]"

# Exported tab-delimited: entries from further up.
smiles	measurement	setting	value
CCOC(=O)c1c2n(c3c(NCc4ccccc4)ncnc13)CCCC2	cell number change		-10.5%
same	AC50	[1]	0.00461 µM [rising, full curve, poor fit]
same	AC50	[2]	29.1 µM [rising, single point]
Cc1ccc(CN(Cc2cccnc2)C(=O)CN2C(=O)COc3ccccc32)o1	cell number change		2.51%
same	AC50	[2]	0.517 µM [rising, full curve, poor fit]
Cc1cc(C)c(S(=O)(=O)N2CCN(C(=O)N3CCOCC3)CC2)c(C)c1	AC50	[2]	9.2 µM [falling, partial curve, poor fit]

# Taken from the results shown (2 entries):
smiles,measurement,setting,value
C=CCC(CC=C)(C(=O)O)c1ccccc1,cell number change,,-0.86%
CC(C)(C)NC(=O)N1CCN(S(=O)(=O)c2ccc3c(c2)CCC3)CC1,cell number change,,-3.63%
